Paper PMC4264749, “Phlebotomy Treatment for Elimination of Perfluoroalkyl Acids in a Highly Exposed Family: A Retrospective Case-Series” (PLoS ONE, 2014)

Experiment: Apparent elimination half-life (HLapp) and phlebotomy efficiency coefficient in treated family members
Assay type: in vivo, human
Details: phlebotomy efficiency coefficient
Excerpt: To evaluate the effect of phlebotomy, versus the expected rate of intrinsic elimination, we graphically and statistically compared the observed decreasing trends in each family member (fitted to a simple exponential decay model) with reference population elimination kinetics. Specifically, for the reference population of occupationally exposed retirees, we considered: i) the 95% confidence interval of the geometric mean elimination rate for each PFAA, and ii) the fastest individual rate of elimination rate among the reference population. For comparative purposes, the concentration of each PFAA in serum on the first day of the intervention was taken as time zero, and the models were forced through this starting point.
One metric that was calculated to compare the efficiency of the phlebotomy for removal of different PFAAs in each family member was termed the phlebotomy efficiency coefficient (EC). This was based on the subtractive difference between HLapp (yrs) in each treated family member and the geometric mean HLin (yrs) of the reference population according to Equation 1 . [drawing 1] (1)

With `O=S(=O)(O)C(F)(F)C(F)(F)C(F)(F)C(F)(F)C(F)(F)C(F)(F)F` [PFHxS, Perfluorohexane sulfonate] as the molecule, how does the “phlebotomy efficiency for enhancing PFAA elimination (order)” value (shortened to “phlebotomy efficiency”) read?
The value was “PFOS≈PFHxS>PFOA”.

Which “phlebotomy efficiency” value does the source give for `O=C(O)C(F)(F)C(F)(F)C(F)(F)C(F)(F)C(F)(F)C(F)(F)C(F)(F)F` [PFOA, perfluorooctanoic acid] here?
Its value is “PFOS≈PFHxS>PFOA”.

With `O=S(=O)(O)C(F)(F)C(F)(F)C(F)(F)C(F)(F)C(F)(F)C(F)(F)C(F)(F)C(F)(F)F` [PFOS, perfluoroctane sulfonate] as the molecule, how does the “phlebotomy efficiency” value read?
Its value is “PFOS≈PFHxS>PFOA”.
